# Primary screen of a compound library

Source: ChEMBL document CHEMBL3988442, “University of Dundee, Small-Polar-MMV Screening Library” (2021).

Results are given as percent effect. How 0% and 100% were set is not recorded. Most values in the screen are low, and negative values occur. The compounds are a random part of those screened. Two or more numbers in one place are separate tests of the same structure; such repeats can differ widely.

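Viability assay of Plasmodium falciparum sporozoites; the read-out is not stated. The concentration is filed as 10 mM, unlikely as a test dose, so the dose is not known. Higher reads as lower viability (inferred: compounds with an IC50 in retests scored well above the rest). Strong results were mostly tested again. Of about 34,000 compounds tested this way, about 280 (0.84%) reached 50% or more in at least one test.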

* COCC1c2nnn(C)c2CCN1C(=O)Cc1ccccn1 (stereo unspecified) : -15.06%
* CC(=O)NCc1nnn2c1CN(c1ncccn1)CCC2 : 14.68%
* CS(=O)(=O)NCCCN1CCCC1c1ccsc1 (stereo unspecified) : 14.43%
* O=C(C1CCCO1)N1CCC2(CC1)COCCN(Cc1ccncc1)C2.O=C(O)C(F)(F)F.O=C(O)C(F)(F)F (stereo unspecified) : 2.344%
* Cc1ccnc(NC(=O)c2cnc(C3CCCNC3)cn2)c1 (stereo unspecified) : 70.96% and 81.72% and 59.47%
* CCc1nccn1C1CCCN(C(=O)c2ccc3nnc(C)n3c2)C1 (stereo unspecified) : 6.376%
* CN(C)CCN1CCN(C(=O)c2ccn(C)c(=O)c2)CC1 : 42.19% and -7.263% and -14.26%
* O=C(CC1CC1)NCc1cc(=O)n2c(n1)CN(Cc1ccoc1)CCC2 : -9.635%
* Cc1ccc(C(=O)N2CCCCC2c2[nH]ncc2S(C)(=O)=O)cn1 (stereo unspecified) : 2.176%
* COc1ccc(Cn2c(C3CCNCC3)cc3cccnc32)cc1.Cl : 16.97%
* Cc1ccc2oc(C(=O)N3CCCC(c4noc(C)n4)C3)cc2n1 (stereo unspecified) : 1.449%
* Cn1nc(CN2CCCCC2)c2c1CN(C(=O)c1ccccc1)C2 : -6.807%
* Cc1occc1C(=O)N1CCC2(CC1)NC(=O)CC2c1cnn(C)c1 (stereo unspecified) : -10.06%
* CCCC(=O)N1CCCCC1C(=O)Nc1ccc(-c2nnc[nH]2)cc1 (stereo unspecified) : -4.042%
* Cc1cnn(CC2CN(CC(=O)NCCc3cccs3)CCO2)c1 (stereo unspecified) : -9.804%
* COc1cccc2c1OCC(C(=O)N1CCN(C3CCSCC3)CC1)C2 (stereo unspecified) : -16.05%
* CNc1nc(CNC(=O)Nc2ccccc2C(F)(F)F)cs1 : -4.734%
* O=C(O)C(F)(F)F.[H][C@@]12CCN(CC(=O)NC)C[C@]1([H])CN(C(=O)c1cc[nH]n1)C2 : 25.53%
* O=C(NCc1cccnc1N1CCCCC1)c1cccs1 : -8.713%
* Cc1cnn(CC2CCCN2C(=O)c2cn(C)c3ccccc23)c1 (stereo unspecified) : 9.694%
* Cn1cc(C[C@H]2[C@H](O)CCN2Cc2ccc3c(c2)OCO3)cn1 : 2.32%
* COCC(=O)N1CCN(Cc2cc(-c3ccncc3)nn2C)CC1 : -7%
* CCN1CCN(CCCNC(=O)NC(C)c2nncn2C)CC1 (stereo unspecified) : 7.138%
* O=C(O)C(F)(F)F.O=C(O)C(F)(F)F.O=C(c1ccnnc1)N1CCN(Cc2cccnc2)c2ncccc2C1 : 7.083%
* CC(C)OCCC(=O)N(C)CCCc1cc(-c2ccccc2)no1 : -7.101%
* Cc1ccc(S(=O)(=O)NC(=O)COc2cccc(C#N)c2)c(C)c1 : 1.829%
* Cc1noc(C2CCN(C(=O)CN(C)c3ccc(Cl)cn3)CC2)n1 : 3.865% and -21.08% and -37.96%
* CCN(Cc1nc2c(cnn2C)c(=O)[nH]1)c1ccccc1 : 10.23%
* O=C(C1CC(=O)N(c2n[nH]c3cc(Br)ccc23)C1)N1CCOCC1 (stereo unspecified) : 9.982%
* CC(C)(C#N)C(=O)N1CCCC(c2cc(C(F)(F)F)[nH]n2)C1 (stereo unspecified) : -1.253%
* CN(Cc1ccccc1)C1(C(=O)O)Cc2ccccc2C1 : -102.1%
* COc1ccc(NC(=O)CCSc2ccc3nncn3n2)c(OC)c1 : -12.36%
* CC/N=c1\nc(NCC)nc2n1C(O)(Nc1cccc(Cl)c1Cl)CS2 (stereo unspecified) : -12.64% and -12.28%
* Cc1nccn1-c1nccnc1C1CCN(Cc2ccc(F)cc2)CC1 : -5.421%
* O=C(O)C(c1ccc2c(c1)OCCO2)N1CCCCCC1 (stereo unspecified) : 5.15%
* COc1cc(C(=O)N(Cc2ccc(F)cc2)C2CC2)cc2c1OCCO2 : 7.554%
* O=C(CCN1CCOCC1)NC(Cc1ccsc1)c1nccs1 (stereo unspecified) : 4.243%
* CCc1noc(C)c1C(=O)N1CCCC1c1c(C)nn(C)c1OC (stereo unspecified) : -7.648%
* Cc1cc(N(C)C)nc(C2CCNC2)n1.Cl.Cl (stereo unspecified) : 11.36%
* Cc1occc1C(=O)N1Cc2nccn2CC(CN2CCOCC2)C1.O=C(O)C(F)(F)F (stereo unspecified) : 0.08681%
* CSc1ccc(CN2CCCC3(CNC(=O)c4ccccc4O3)C2)cc1 (stereo unspecified) : 9.421%
* Cc1cc(N(C)C)nc(C2COCCN2Cc2cc(C)on2)n1 (stereo unspecified) : 10.4%
* Cc1cc(C)n(-c2cncc(NCCNC(=O)CC3CCCC3)n2)n1 : 5.075%
* O=C(O)C(F)(F)F.[H][C@@]12COC[C@]1(CNC(=O)N(C)C)CN(Cc1cc(C)on1)C2 : 6.397%
* CN(C)C(=O)c1cccc(C2CNCCN2C)c1 (stereo unspecified) : 4.144%
* CCn1ncnc1C(C)Nc1cc(C2CC2)ncn1 (stereo unspecified) : -3.76%
* O=C1NCCCc2[nH]c(C3CCN(C(=O)C4CC4)CC3)nc21 : -8.462%
* COc1ccc(CNC(=O)NC(C)(C(=O)O)c2ccco2)cc1F (stereo unspecified) : -6.912%
* [H][C@@]12CN(CC3CCC3)C[C@]1([H])OCCN2c1ncc(F)cn1 : 2.706%
* O=C(CC1CN(Cc2ccccc2)CCO1)NC1CCSCC1 (stereo unspecified) : -19.15% and -27.15%
* CC(C)C(NC(=O)N1CCN(c2ccc(Cl)cc2)CC1)C(=O)NC1CC1 (stereo unspecified) : 7.38%
* Cc1cc(N2CCCC2c2nc(C)cc(CCC(=O)O)n2)ncn1 (stereo unspecified) : 3.839%
* O=C(O)C(F)(F)F.[H][C@@]12COC[C@]1(CN(C)C)CN(C(=O)Cc1ccc3c(c1)OCO3)C2 : -18.25%
* OCC1CCCN1c1cc(NCc2cccs2)ncn1 (stereo unspecified) : 18.84%
* C/N=C1\c2cc3cc(OC)ccc3n2CCN1C.Cl : -12%
* COc1ccccc1C(=O)NS(=O)(=O)c1cccc(C#N)c1 : 1.554%

Once more, the final 7:

O=C(CC1CN(Cc2ccccc2)CCO1)NC1CCSCC1 (stereo unspecified) gave -19.15% and -27.15%.
CC(C)C(NC(=O)N1CCN(c2ccc(Cl)cc2)CC1)C(=O)NC1CC1 (stereo unspecified) gave 7.38%.
Cc1cc(N2CCCC2c2nc(C)cc(CCC(=O)O)n2)ncn1 (stereo unspecified) gave 3.839%.
O=C(O)C(F)(F)F.[H][C@@]12COC[C@]1(CN(C)C)CN(C(=O)Cc1ccc3c(c1)OCO3)C2 gave -18.25%.
OCC1CCCN1c1cc(NCc2cccs2)ncn1 (stereo unspecified) gave 18.84%.
C/N=C1\c2cc3cc(OC)ccc3n2CCN1C.Cl gave -12%.
COc1ccccc1C(=O)NS(=O)(=O)c1cccc(C#N)c1 gave 1.554%.